Laboratory results published in article doi:10.1101/2024.03.08.584095.
These are yes or no findings as the source states them, for the method shown. Some binding calls cover weakened binding; strength is not graded here.

Molecular target: light-dependent protochlorophyllide oxidoreductase B of Arabidopsis thaliana (AtPORB) (A. thaliana) (UniProt P21218)
Experiment: negative-stain electron microscopy

B1: light-dependent protochlorophyllide oxidoreductase B of Arabidopsis thaliana (AtPORB) (enzyme, UniProt P21218 67-401)
chain: QTAATSSPTVTKSVDGKKTLRKGNVVVTGASSGLGLATAKALAETGKWNVIMACRDFLKAERAAKSVGMPKDSYTVMHLDLASLDSVRQFVDNFRRTETPLDVLVCNAAVYFPTAKEPTYSAEGFELSVATNHLGHFLLARLLLDDLKKSDYPSKRLIIVGSITGNTNTLAGNVPPKANLGDLRGLAGGLNGLNSSAMIDGGDFDGAKAYKDSKVCNMLTMQEFHRRFHEETGVTFASLYPGCIASTGLFREHIPLFRALFPPFQKYITKGYVSETESGKRLAQVVSDPSLTKSGVYWSWNNASASFENQLSEEASDVEKARKVWEISEKLVGLA
binding: binds
